# Reference: US20230302032A1, “ANTIBACTERIAL COMPOSITIONS AND METHODS FOR FABRICATING THEREOF” (Harrow IP LLC, priority 2020, published 2023)
# Test: HPLC potency and stability of stored antibiotic solutions;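 also: stored antibiotic compositions assayed by HPLC for remaining potency, USP acceptance requires at least 90% of nominal concentration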
# Conditions: composition of Example 2 (with L-glycine)
structure (smiles),measurement,setting,value
"CCN(CC)CC(=O)Nc1c(C)cccc1C [Lidocaine, 2-diethylamino-N-(2,6-dimethylphenyl)acetamide]",Stability of the composition (assay %),Day 0,100%
same,Stability of the composition (assay %),Day 30,102.2%
same,Stability of the composition (assay %),Day 60,96.1%
same,Stability of the composition (assay %),Day 90,100.6%
same,Stability of the composition (assay %),Day 180,102.7%
